Measurements published in PubChem BioAssay AID493014 (National Center for Advancing Translational Sciences (NCATS), 2011).
Values joined by “and” are separate entries in the source; they are usually repeats but may differ in a detail not shown here. Equal entries are not always repeated. The list shows a part of the results. Shown are side measurements of this screen, not its main read-out; they come without a call. Most of these compounds were active or inconclusive in the main read-out, so they are no random draw. Words in brackets tell the shape of the fitted curve; partial curves, single points and poor fits give uncertain potencies.

Experiment: qHTS Assay to Find Inhibitors of Chronic Active B-Cell Receptor Signaling
Details: ABC-DLBCL IkBa-CBG/CBR reporter, luminescence ratio (green luciferase fused to IkBa over red control in TMD8 lymphoma cells), 4 h
Procedure, shortened: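 Doxycycline induced both beetle luciferases in TMD8 lymphoma cells; IKK-driven degradation limits the IkappaBalpha-fused green signal, while red luminescence normalises for cell number and nonspecific effects. Compounds tested up to 46 uM, 4 hrs.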

[1] = measured here: CBR red luminescence, cell number
[2] = measured here: IkBa-CBG green luminescence

Row | Structure (SMILES) | AC50 [1] | AC50 [2]
1 | O=C(N/N=C1\C/C(=N\NC(=O)c2ccncc2)c2ccccc21)c1ccncc1 | 35.5 µM [falling, single point] | –
2 | Cc1nc2ccccc2c(=O)n1CCCO | 6.31 µM [falling, single point] | –
3 | Cc1ccsc1C(=O)OCC(=O)Nc1ccc(Cl)cn1 | 0.0651 µM [rising, full curve, poor fit] | –
4 | Clc1ccc2[nH]c(-c3ccccc3)cc2c1 | 0.282 µM [rising, full curve, poor fit] | –
5 | COc1ccc2ccc3c(c2c1)N=C[C@]1(O3)N(C)c2ccccc2C1(C)C | 14.1 µM [falling, partial curve, poor fit] | –
6 | CSc1ccccc1-c1nnc(-c2ccccc2)o1 | 7.31 µM [falling, partial curve, poor fit] | –
7 | CCC/C(=N/NC(=O)c1cccc(Cl)c1)c1ccccc1 | 16.4 µM [falling, partial curve, poor fit] | –
8 | O=C(Nc1ccc2nsnc2c1)NC1CCCCC1 | 20.6 µM [falling, single point] | –
9 | COc1ccccc1N(/N=C1\Sc2ccccc2C1=O)C(C)=O | 22.4 µM [falling, partial curve, poor fit] | –
10 | CCC(=O)Nc1ccc(OCc2nc3ccccc3s2)cc1 | 0.708 µM [falling, full curve, poor fit] | –
11 | CCc1ccc(C2N3CC4([N+](=O)[O-])CN2CC([N+](=O)[O-])(C3)C4(C)C)cc1 (stereo unspecified) | 32.6 µM [rising, single point] | –
12 | C[C@]12CCC(=O)C=C1CC[C@@H]1[C@@H]2C(=O)C[C@@]2(C)[C@H]1CC[C@]2(O)C(=O)CO | 0.141 µM [rising, full curve, poor fit] | –
13 | COC(=O)c1ccc(CN(Cc2ccc(OC)c(OC)c2)S(=O)(=O)c2ccc(F)c(C(=O)Nc3cc(C)ccc3C)c2)cc1 | 0.708 µM [rising, partial curve, poor fit] | –
14 | O=C(Nc1ccc2nn(-c3ccccc3)nc2c1)c1ccc2c(c1)OCCO2 | 11.2 µM [falling, partial curve, poor fit] | –
15 | COc1ccccc1NC(=O)C(=O)N/N=C/c1cccs1 | 0.0366 µM [falling, full curve] | –
16 | COc1ccccc1CNN | 11.2 µM [falling, partial curve] | –
17 | COc1ccc(NC(=O)C(=O)c2cn(CC(=O)N3CCCC3)c3ccccc23)c(OC)c1 | 0.708 µM [falling, full curve, poor fit] | –
18 | CCOc1ccc(N2C(=O)CSC23CCCCC3)cc1 | 11.2 µM [falling, partial curve, poor fit] | –
19 | O=C(Nc1ccc(F)cc1)c1ccc2snnc2c1 | 8.91 µM [falling, partial curve, poor fit] | –
20 | Brc1ccc(-c2nn[nH]n2)cc1 | 10 µM [rising, partial curve] | –
21 | CN(/N=C/c1ccc([N+](=O)[O-])o1)c1ccccc1 | 14.1 µM [rising, partial curve, poor fit] | –

3 structures already listed, sorted by count of non-hydrogen atoms, high to low.
Row | Structure (SMILES) | AC50 [1] | AC50 [2]
18 | CCOc1ccc(N2C(=O)CSC23CCCCC3)cc1 | 11.2 µM [falling, partial curve, poor fit] | –
19 | O=C(Nc1ccc(F)cc1)c1ccc2snnc2c1 | 8.91 µM [falling, partial curve, poor fit] | –
2 | Cc1nc2ccccc2c(=O)n1CCCO | 6.31 µM [falling, single point] | –

Further records follow.

Row | Structure (SMILES) | AC50 [1] | AC50 [2]
22 | CNC(=O)c1c(NC(=O)CS(=O)(=O)c2ccc(Cl)cc2)sc(C)c1C | 3.26 µM [falling, single point] | –
23 | CC(C)NC(=O)N(C)C[C@H]1Oc2ccc(NC(=O)Nc3ccc(C(F)(F)F)cc3)cc2C(=O)N([C@H](C)CO)C[C@@H]1C | 18.4 µM [rising, single point] | –
24 | O=C(NNC(=S)NC(=O)c1ccc(Br)cc1)c1ccc([N+](=O)[O-])cc1 | 12.6 µM [rising, partial curve, poor fit] | –
25 | COc1ccc(OCc2n(CC(=O)OC3CC(C)CCC3C(C)C)c3ccccc3[n+]2C)cc1 (stereo unspecified) | 15.8 µM [falling, single point] | 35.5 µM [rising, partial curve, poor fit]
26 | O=c1cc(CSc2ccc(Cl)cc2)nc(-c2ccccn2)[nH]1 | 10 µM [rising, partial curve] | 15.8 µM [falling, partial curve]
27 | COCCCC/C(=N\OCCN)c1ccc(C(F)(F)F)cc1 | 4.47 µM [falling, partial curve, poor fit] and 16.4 µM [falling, partial curve, poor fit] | 2.82 µM [rising, partial curve, poor fit]
28 | CC1=NN(C(N)=S)C(=O)C1N=Nc1ccc(C)c(Br)c1 (stereo unspecified) | 1 µM [rising, full curve, poor fit] | 0.631 µM [falling, partial curve, poor fit]
29 | Clc1ccccc1Nc1nc(-c2cccnc2)cs1 | 35.5 µM [falling, single point] | –
30 | COc1ccccc1NC(=S)NNC(=O)c1cc(C)n(C)n1 | 7.31 µM [falling, partial curve, poor fit] | –
31 | Cc1ccc(NC2=CC(=O)CCC2)cc1C | 29.1 µM [falling, single point] | –
32 | CCCOc1ccccc1C1CC(=O)NC2=C1C(=O)CCC2 (stereo unspecified) | 35.5 µM [rising, single point] | –
33 | COCCSc1ccccc1C(=O)Nc1ccccc1C#N | 35.5 µM [rising, single point] | –
34 | O=C(NCCO)c1ccc(Oc2ccc(C(F)(F)F)cc2[N+](=O)[O-])cc1 | 31.6 µM [rising, single point] | –
35 | CC(C)N1CCc2c(sc(NC(=S)NC(=O)c3ccccc3)c2C#N)C1 | 1.16 µM [falling, full curve] | –
36 | O=C(c1ccco1)N1N=C(c2ccc(Br)cc2)CC1c1ccco1 (stereo unspecified) | 20.6 µM [rising, single point] | –
37 | CC(=O)OCC(=O)[C@@]12OC(C)(C)O[C@@H]1CC1C3C[C@H](F)C4=CC(=O)C=CC4(C)[C@@]3(F)C(O)CC12C (stereo partly specified) | 29.1 µM [rising, partial curve, poor fit] | –
38 | CCN1CCN(c2oc(-c3ccccc3C)nc2S(=O)(=O)c2ccccc2)CC1 | 0.103 µM [rising, full curve, poor fit] | –
39 | CCOc1ccc(OCC)c(NC(=O)C2CCN(c3ncccn3)CC2)c1 | 32.6 µM [rising, partial curve, poor fit] | –
40 | Oc1ccc2ccccc2c1C=Nc1ccccc1 | 35.5 µM [falling, single point] | –
41 | O=C(COC(=O)C1CCN(c2ccc(C(F)(F)F)cn2)CC1)NCc1ccc(F)cc1 | 29.1 µM [rising, single point] | –
42 | CCOc1cccc(C(=O)NNC(=O)C2C3C=CC(C3)C2C(=O)O)c1 (stereo unspecified) | 0.562 µM [falling, full curve, poor fit] | –

Row | Structure (SMILES) | AC50 [1] | AC50 [2]
43 | CN(C)CCCN(C(=O)c1sc2ccccc2c1Cl)c1nc2ccc(F)cc2s1 | 1.64 µM [falling, full curve, poor fit] | –
44 | N#C/C(=C\c1ccc(F)cc1)C(=O)Nc1ccccn1 | 5.01 µM [rising, full curve, poor fit] | –
45 | COc1ccc(Cn2nnc3c(=O)[nH]c(C(=O)NCCc4ccc(F)cc4)nc32)cc1OC | 7.31 µM [rising, partial curve, poor fit] | –
46 | Cc1cc(=O)oc(C)c1C(=O)NCC(C)NC(=O)c1c(C)cc(=O)oc1C (stereo unspecified) | 29.1 µM [rising, single point] | –
47 | COc1ccc(C(=O)COC(=O)CNC(=O)c2ccc(C)s2)c(OC)c1 | 0.82 µM [rising, full curve] | –
48 | COc1cccc(/C=C2\SC(=S)N(N3C(=O)CCCC3=O)C2=O)c1 | 11.2 µM [falling, single point] | –
49 | CSc1ccc(S(=O)(=O)N2CCC(C(=O)NCCc3ccccc3)CC2)cc1 | 6.31 µM [rising, single point] | –
50 | COc1cc(NC(=O)/C=C/c2ccccc2)c(C(=O)O)cc1OC | 11.2 µM [falling, partial curve, poor fit] | –
51 | O=C(NNC1=Nc2ccccc2SC1)c1cccc([N+](=O)[O-])c1 | 1.58 µM [rising, full curve, poor fit] | –
52 | COC(=O)c1ccc2c(=O)n(CCCCCC(=O)O)c(=S)[nH]c2c1 | 1.16 µM [falling, full curve] | –
53 | Nc1nnc(-c2cccc(F)c2)s1 | 20 µM [rising, partial curve, poor fit] | –
54 | COc1ccc(NC(=O)CCN2C(=O)c3ccncc3C2=O)cc1OC | 20 µM [rising, single point] | –
55 | O=C(CCC(=O)NC1CC1)Nc1nnc(C2CCCCC2)s1 | 2.82 µM [rising, full curve, poor fit] | –
56 | CN1CCN(CCCNC(=O)c2ccc(CS(=O)(=O)c3ccc(Br)cc3)o2)CC1 | 29.1 µM [rising, single point] | –
57 | O=C(N/N=C/C=C\c1ccco1)c1ccccn1 | 12.6 µM [falling, partial curve, poor fit] | –
58 | COc1ccc(Oc2nccc(-c3ccccc3)c2C#N)cc1 | 1.26 µM [rising, full curve, poor fit] | –
59 | O=C(Nc1ccc2oc(-c3ccccc3)nc2c1)c1ccncc1 | 0.708 µM [rising, full curve, poor fit] | –
60 | CN1CCN(CC(=O)Nc2ccc(OC(F)(F)F)cc2)CC1 | 22.4 µM [falling, single point] | –
61 | C=CCNC(=S)NNC(=O)c1cccn(Cc2ccc(Cl)cc2)c1=O | 3.16 µM [falling, partial curve, poor fit] | –
62 | Cc1ccc(-c2noc(CCC(=O)NCC3CCCO3)n2)cc1 (stereo unspecified) | 29.1 µM [rising, single point] | –
